Measured values as given in PubChem BioAssay AID504834 (National Center for Advancing Translational Sciences (NCATS), 2011).
Hit rate of the full screen: of about 320,000 compounds, about 22,000 (6.9%) were called active. Inconclusive means that the source gave no clear call. Such entries were picked first, then a sample of the others. The call rests on the fitted dose curve; in most records, active means well fitted inhibition curve with a large enough effect; inconclusive means small, poorly fitted or top-dose-only effect, or another doubt; inactive means no such curve, though single readings can be large or run the other way. A potency beside an inconclusive call is a rough fit, not a confirmed value.

test: Primary qHTS for delayed death inhibitors of the malarial parasite plastid, 96 hour incubation; conditions: P. falciparum luciferase reporter growth; series mostly up to 28.7 µM; activity change, negative = inhibition: at the top concentration
How it was run: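 Infected RBCs, 2% Hct / 0.05% parasitemia final; luciferase-reporter P. falciparum; cpd 96 h, 37 C, 5% CO2; luciferase detection reagent; luminescence.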
On the % scale 0 is the no-effect control and ±100 the full control effect; potency means the concentration at half of the fitted maximal effect.

**Q.** Which Potency does the source give for `CCOc1cc(NC(=S)NC)c(OCC)cc1NC(=O)c1cccs1` here?
**A.** inconclusive: 3.7 µM [inhibitor, partial curve, poor fit]

**Q.** With `COc1ccc(C2CC(=O)c3sc(NC(C)=O)nc3C2)cc1` (centres undefined) as the compound, how does the Potency read?
**A.** inconclusive: 13.1 µM [inhibitor, single point]

**Q.** With `Cc1cc(C)c(NC(=O)CCn2nnc3ccccc32)c(C)c1` as the compound, how does the Potency read?
**A.** inconclusive: 2.08 µM [inhibitor, full curve, poor fit]

**Q.** With `O=C(NC1=NCCS1)[C@H](Cc1ccccc1)N1C(=O)c2ccccc2C1=O` as the compound, how does the Potency read?
**A.** inconclusive: 11.7 µM [inhibitor, partial curve, poor fit]

**Q.** With `CSc1nc(C)cc(SCC(=O)N/N=C/c2ccccc2)n1` as the compound, how does the “activity change, negative = inhibition” value read?
**A.** inactive: -18.9%

**Q.** With `Cc1ccc2oc(=O)c(/C=C(\O)c3cccs3)nc2c1` as the compound, how does the Potency read?
**A.** inconclusive: 7.38 µM [inhibitor, partial curve]

**Q.** For `CCOc1ccc(Oc2ccc(Cl)cc2NC(=O)CCNC(C)=O)cc1`, which Potency is on record?
**A.** inconclusive: 18.5 µM [inhibitor, single point]

**Q.** With `O=C(CCN1C(=O)c2cccc3cccc(c23)C1=O)N1CCOCC1` as the compound, how does the Potency read?
**A.** inconclusive: 11.7 µM [inhibitor, partial curve, poor fit]

**Q.** With `O=C(c1ccccc1)c1ccc2nc(Nc3ccccc3)c3nncn3c2c1` as the compound, how does the Potency read?
**A.** inconclusive: 4.65 µM [inhibitor, partial curve]

**Q.** With `O=C(C1CC1)N1CCc2cc(S(=O)(=O)N3CCOCC3)ccc21` as the compound, how does the “activity change, negative = inhibition” value read?
**A.** inactive: 20.5%

**Q.** Which Potency does the source give for `COc1ccc(-n2nc3c(N4CCC(C(=O)NCc5cccc(C)c5)CC4)nnc(C)c3c2C)cc1` here?
**A.** inconclusive: 18.5 µM [inhibitor, single point]

**Q.** For `Cc1ccc(/C=C2\SC(=S)N(CCC(=O)NNS(=O)(=O)c3ccccc3)C2=O)cc1`, which “activity change, negative = inhibition” value is on record?
**A.** inactive: 48.2%

**Q.** For `CC1(c2ccccc2)O[C@@H]2C[C@H]3[C@@H]4CCC5=CC(=O)C=C[C@]5(C)[C@@]4(F)[C@@H](O)C[C@]3(C)[C@]2(C(=O)CO)O1` (some centres undefined), which Potency is on record?
**A.** active: 1.85 µM

**Q.** With `CCn1c(/C=N/c2nc3ccccc3n2C)nc2ccccc21` as the compound, how does the “activity change, negative = inhibition” value read?
**A.** inactive: -13%

**Q.** Which Potency does the source give for `COC(=O)CC1SC(=O)NC1=Nc1cccc(C)c1` (centres undefined) here?
**A.** inconclusive: 10.4 µM [inhibitor, partial curve]

**Q.** With `O=c1c2c(nc3n1CCS3)c1cc(F)ccc1n2Cc1cc(=O)n2cc(Cl)ccc2n1` as the compound, how does the Potency read?
**A.** active: 1.85 µM

**Q.** With `O=C(COc1ccccc1-c1ccccc1)NCc1cccc(Cl)c1` as the compound, how does the Potency read?
**A.** active: 13.1 µM

**Q.** With `Cc1ccc(S(=O)(=O)Nc2cc(C)c(O)c(S(=O)(=O)c3ccc(C)cc3)c2)cc1` as the compound, how does the Potency read?
**A.** inconclusive: 0.522 µM [inhibitor, full curve, poor fit]

**Q.** With `O=C(OCc1c(-c2ccccc2)ncc2ccccc12)N1CCOCC1` as the compound, how does the Potency read?
**A.** inconclusive: 3.7 µM [inhibitor, single point]

**Q.** Which Potency does the source give for `Cc1ccc(C(=O)Nc2nc(-c3ccccn3)cs2)o1` here?
**A.** active: 2.33 µM

**Q.** For `COc1ccc(S(=O)(=O)NCCC(=O)N2CCCN(C)CC2)cc1`, which Potency is on record?
**A.** inconclusive: 1.65 µM [inhibitor, partial curve, poor fit]

**Q.** Which Potency does the source give for `O=C(CCNC(=O)C1CCN(S(=O)(=O)c2ccccc2)CC1)NCc1ccc(Cl)cc1Cl` here?
**A.** inconclusive: 9.28 µM [inhibitor, partial curve]

**Q.** With `Clc1ccc2c(N3CCOCC3)ccnc2c1` as the compound, how does the “activity change, negative = inhibition” value read?
**A.** inactive: 11.4%

**Q.** For `CCCOc1ccc(/C=C/C(=O)NC2CCCCC2)cc1OC`, which Potency is on record?
**A.** inconclusive: 1.65 µM [inhibitor, partial curve]

**Q.** Which Potency does the source give for `COc1ccc(Cl)cc1NC(=O)c1ocnc1C` here?
**A.** active: 1.04 µM

**Q.** With `CCOc1cc(/C=C(/C#N)c2nc3ccccc3[nH]2)ccc1OCc1ccc(C(=O)O)o1` as the compound, how does the “activity change, negative = inhibition” value read?
**A.** inactive: 8.36%

**Q.** Which Potency does the source give for `O=C(c1ccc(Cl)c(S(=O)(=O)N2CCCCC2)c1)N1CCN(Cc2ccccc2)CC1` here?
**A.** inconclusive: 11.7 µM [inhibitor, partial curve]

**Q.** With `COC(=O)c1c(NC(=O)c2ccccc2OC)sc(C(=O)N2CCOCC2)c1C` as the compound, how does the “activity change, negative = inhibition” value read?
**A.** inactive: -19.1%

**Q.** For `CCCC(C)C1(CC)C(=O)NC(=Nc2ccc(F)cc2)NC1=O` (centres undefined), which Potency is on record?
**A.** inconclusive: 18.5 µM [inhibitor, single point]

**Q.** Which “activity change, negative = inhibition” value does the source give for `Cc1c(NS(=O)(=O)c2cc(C(=O)NCCN(C)C)ccc2Cl)c(=O)n(-c2ccccc2)n1C` here?
**A.** inactive: 1.09%

**Q.** For `CC(C)(C)C1=CC(=O)C(=O)C(C(C)(C)C)=C1`, which “activity change, negative = inhibition” value is on record?
**A.** inactive: -25.7%

**Q.** Which Potency does the source give for `CC1(C)CC(=O)C(CC2C(=O)CC(C)(C)CC2=O)C(=O)C1` here?
**A.** inconclusive: 0.0415 µM [inhibitor, full curve, poor fit]

**Q.** For `COc1ccccc1N1CCN(CCCNC(=O)Cn2ncc3c([nH]c4ccccc43)c2=O)CC1`, which Potency is on record?
**A.** inconclusive: 18.5 µM [inhibitor, single point]

**Q.** With `CSc1ccc(S(=O)(=O)N2CCC(C(=O)N3CCc4ccccc4C3)CC2)cc1` as the compound, how does the “activity change, negative = inhibition” value read?
**A.** inactive: -3.33%

**Q.** Which Potency does the source give for `CCOc1ccc(S(=O)(=O)N2CCCCC2)cc1NC(=O)CCc1ccc(OC)cc1` here?
**A.** active: 10.4 µM

**Q.** Which Potency does the source give for `CCCCOc1ccc(C(=O)N2CCN(c3ccc(N4CCOCC4)nn3)CC2)cc1` here?
**A.** inconclusive: 11.7 µM [inhibitor, partial curve, poor fit]

**Q.** With `Cc1c(C2N3CC4(C)CN2CC(C)(C3)C4=O)c2ccccc2n1C` (centres undefined) as the compound, how does the Potency read?
**A.** inconclusive: 18.5 µM [inhibitor, single point]

**Q.** With `Cc1nc2cc(NC(=O)c3ccc(Br)s3)ccc2s1` as the compound, how does the “activity change, negative = inhibition” value read?
**A.** inactive: 243%

**Q.** Which Potency does the source give for `Cc1ccc(/C=N/NC(=S)NC2CCS(=O)(=O)C2)cc1` (centres undefined) here?
**A.** inconclusive: 4.15 µM [inhibitor, partial curve, poor fit]

**Q.** With `O=S(=O)(Nc1ncccn1)c1cc(Cl)ccc1Cl` as the compound, how does the Potency read?
**A.** inconclusive: 18.5 µM [inhibitor, single point]

**Q.** Which Potency does the source give for `COc1ccc(NC(=O)CSc2ccc(-c3sc(C)nc3C)nn2)cc1OC` here?
**A.** active: 13.1 µM

**Q.** Which Potency does the source give for `Cc1cccc([C@@H]2[C@@H]3C(=O)N(Cc4ccccc4)C(=O)[C@@H]3[C@]3(C)C(=O)N(c4ccc(Br)cc4)C(=O)N23)c1` here?
**A.** inconclusive: 18.5 µM [inhibitor, single point]

**Q.** With `COC(=O)c1ccc(OCC(O)CN(CCO)CC(O)Cn2ccc3ccccc32)cc1` (centres undefined) as the compound, how does the Potency read?
**A.** inconclusive: 18.5 µM [inhibitor, single point]

**Q.** For `CNC(=O)c1ccccc1S(=O)(=O)c1ccccc1C#N`, which Potency is on record?
**A.** inconclusive: 0.0928 µM [inhibitor, full curve, poor fit]

**Q.** Which Potency does the source give for `COc1ccc(NC(=O)N2CCN(c3nc(-c4cccc(OC)c4)cs3)CC2)cc1` here?
**A.** inconclusive: 8.28 µM [inhibitor, partial curve]

**Q.** With `CC(=O)Nc1ccc(NC(=O)C(C)OC(=O)C2CC(=O)N(CCc3ccccc3)C2)cc1` (centres undefined) as the compound, how does the “activity change, negative = inhibition” value read?
**A.** inactive: 0.835%

**Q.** Which Potency does the source give for `CN(CCOc1ccc(-c2ccn(S(=O)(=O)c3c(Cl)cccc3Cl)n2)cc1)c1ccccn1` here?
**A.** active: 2.62 µM

**Q.** Which “activity change, negative = inhibition” value does the source give for `CCN(C(=O)c1cn(C)c(=O)c2cc(OC)c(OC)cc12)c1cc(C)ccc1C` here?
**A.** inactive: 71.5%

**Q.** Which Potency does the source give for `O=C(NCCc1ccncc1)Nc1ccccc1Cl` here?
**A.** inconclusive: 4.15 µM [inhibitor, single point]

**Q.** With `CCOC(=O)N1CCC(=NNC(=O)COc2ccc(OC)cc2)CC1` as the compound, how does the “activity change, negative = inhibition” value read?
**A.** inactive: -18.6%

**Q.** For `CC(C)(C)OC(=O)N1CCN(C(=O)c2ncn(Cc3ccccc3)c2C(=O)N2CCN(C(=O)OC(C)(C)C)CC2)CC1`, which Potency is on record?
**A.** inconclusive: 5.86 µM [inhibitor, single point]

**Q.** With `Cc1ccc(NC(=O)CSCC(=O)Nc2sccc2C#N)cc1` as the compound, how does the Potency read?
**A.** inconclusive: 4.15 µM [inhibitor, single point]

**Q.** With `COc1cccc(NC(=O)CSc2nncn2N)c1` as the compound, how does the Potency read?
**A.** inconclusive: 5.22 µM [inhibitor, single point]

**Q.** For `Cc1cc(N2CCN(c3ccccn3)CC2)n2cc(-c3ccccc3)nc2n1`, which Potency is on record?
**A.** active: 6.57 µM

**Q.** Which Potency does the source give for `COc1ccc(C2=Nn3c(nnc3-c3ccco3)SC2)cc1` here?
**A.** inconclusive: 9.28 µM [inhibitor, partial curve, poor fit]

**Q.** Which Potency does the source give for `CCOc1cc(C(N)=O)cc(Cl)c1OCC` here?
**A.** inconclusive: 5.86 µM [inhibitor, partial curve, poor fit]

**Q.** Which Potency does the source give for `Cc1cc(N2CC(C(=O)Nc3nccs3)CC2=O)ccc1C(C)C` (centres undefined) here?
**A.** inconclusive: 4.65 µM [inhibitor, partial curve, poor fit]

**Q.** With `O=C(COC(=O)c1ccc(F)cc1Cl)NC(=O)NC1CCCC1` as the compound, how does the “activity change, negative = inhibition” value read?
**A.** inactive: -12.4%

**Q.** Which Potency does the source give for `CCCCSC1=C(C#N)C(c2ccccc2C)CC(=O)N1` (centres undefined) here?
**A.** inconclusive: 9.28 µM [inhibitor, single point]

**Q.** For `CCc1ccc(NC(=O)c2ccc(F)c(S(=O)(=O)NCC3COc4ccccc4O3)c2)cc1` (centres undefined), which Potency is on record?
**A.** inconclusive: 8.28 µM [inhibitor, partial curve, poor fit]

**Q.** With `CC1(C)C(=O)Nc2ccccc2N1C(=O)COC(=O)CNS(=O)(=O)c1ccc(F)c(F)c1F` as the compound, how does the “activity change, negative = inhibition” value read?
**A.** inactive: 28.5%

**Q.** Which “activity change, negative = inhibition” value does the source give for `O=C(CN1CCCCC1)N1CCCc2ccccc21` here?
**A.** inactive: 19.8%

**Q.** For `CCn1cc(C(=O)NCC2CCCO2)c(=O)c2cc(S(=O)(=O)N(C)C3CCCCC3)ccc21` (centres undefined), which Potency is on record?
**A.** inconclusive: 0.294 µM [inhibitor, full curve, poor fit]

**Q.** Which Potency does the source give for `O=C(NC(=S)Nc1ncccn1)c1ccccc1Br` here?
**A.** inconclusive: 10.4 µM [inhibitor, single point]

**Q.** With `CN(C)c1ccc(C(CNC(=O)Cc2cccc3ccccc23)N(C)C)cc1` (centres undefined) as the compound, how does the “activity change, negative = inhibition” value read?
**A.** inactive: 28.4%

**Q.** With `CC(C)c1ccc(NC(=O)c2cc([N+](=O)[O-])ccc2N2CCOCC2)cc1` as the compound, how does the “activity change, negative = inhibition” value read?
**A.** inactive: -42.7%

**Q.** Which Potency does the source give for `COc1ccc(N2C(=O)CNC2=S)cc1` here?
**A.** inconclusive: 16.5 µM [inhibitor, single point]

**Q.** For `CCN(CC)S(=O)(=O)c1cc(NC(=O)c2n[nH]c(=O)c3ccccc23)ccc1C`, which Potency is on record?
**A.** inconclusive: 18.5 µM [inhibitor, single point]

**Q.** For `COc1ccc(NC2c3ccccc3C(=O)N2c2cccnc2)cc1Cl` (centres undefined), which Potency is on record?
**A.** inconclusive: 18.5 µM [inhibitor, single point]
